Data taken from the supplement of paper PMC10849652.
The list shows a part of the results.

Chains of the proteins cited; added tags and fusions are not shown. Lines headed by an entry give the natural chain unless they say otherwise; changes in a name come on top.
UniProt Q9HAU5: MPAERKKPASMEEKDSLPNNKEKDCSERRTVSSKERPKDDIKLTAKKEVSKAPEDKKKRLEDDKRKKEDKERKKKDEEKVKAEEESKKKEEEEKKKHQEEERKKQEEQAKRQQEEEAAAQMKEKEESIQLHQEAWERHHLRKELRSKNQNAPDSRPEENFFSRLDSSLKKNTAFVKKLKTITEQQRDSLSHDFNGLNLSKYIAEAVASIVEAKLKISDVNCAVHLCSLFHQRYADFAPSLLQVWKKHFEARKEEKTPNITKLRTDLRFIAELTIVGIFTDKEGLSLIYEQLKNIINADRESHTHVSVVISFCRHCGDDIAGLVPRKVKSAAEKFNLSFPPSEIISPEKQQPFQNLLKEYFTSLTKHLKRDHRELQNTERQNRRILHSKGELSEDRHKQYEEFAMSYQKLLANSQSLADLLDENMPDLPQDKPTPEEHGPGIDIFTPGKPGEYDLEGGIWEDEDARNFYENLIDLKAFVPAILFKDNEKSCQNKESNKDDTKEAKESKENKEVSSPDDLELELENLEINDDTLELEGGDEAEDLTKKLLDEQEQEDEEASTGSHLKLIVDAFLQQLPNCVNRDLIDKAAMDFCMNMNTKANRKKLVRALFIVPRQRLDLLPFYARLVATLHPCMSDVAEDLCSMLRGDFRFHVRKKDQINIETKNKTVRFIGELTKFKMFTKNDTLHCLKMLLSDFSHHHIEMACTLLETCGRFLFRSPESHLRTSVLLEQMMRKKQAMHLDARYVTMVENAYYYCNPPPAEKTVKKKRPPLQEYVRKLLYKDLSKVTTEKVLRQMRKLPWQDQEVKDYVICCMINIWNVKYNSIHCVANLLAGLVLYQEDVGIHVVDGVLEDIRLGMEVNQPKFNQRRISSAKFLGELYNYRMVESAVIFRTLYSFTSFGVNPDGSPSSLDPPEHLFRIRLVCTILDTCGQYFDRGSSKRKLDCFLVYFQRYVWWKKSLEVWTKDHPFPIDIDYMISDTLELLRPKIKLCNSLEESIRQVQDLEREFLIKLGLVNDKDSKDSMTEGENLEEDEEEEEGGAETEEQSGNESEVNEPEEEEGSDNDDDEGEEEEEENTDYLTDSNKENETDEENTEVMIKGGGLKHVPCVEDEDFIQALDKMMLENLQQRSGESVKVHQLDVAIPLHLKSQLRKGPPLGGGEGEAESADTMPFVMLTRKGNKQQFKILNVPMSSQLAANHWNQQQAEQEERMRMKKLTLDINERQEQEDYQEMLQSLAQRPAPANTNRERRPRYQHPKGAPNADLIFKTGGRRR
UniProt Q14694, whole entry, looked up: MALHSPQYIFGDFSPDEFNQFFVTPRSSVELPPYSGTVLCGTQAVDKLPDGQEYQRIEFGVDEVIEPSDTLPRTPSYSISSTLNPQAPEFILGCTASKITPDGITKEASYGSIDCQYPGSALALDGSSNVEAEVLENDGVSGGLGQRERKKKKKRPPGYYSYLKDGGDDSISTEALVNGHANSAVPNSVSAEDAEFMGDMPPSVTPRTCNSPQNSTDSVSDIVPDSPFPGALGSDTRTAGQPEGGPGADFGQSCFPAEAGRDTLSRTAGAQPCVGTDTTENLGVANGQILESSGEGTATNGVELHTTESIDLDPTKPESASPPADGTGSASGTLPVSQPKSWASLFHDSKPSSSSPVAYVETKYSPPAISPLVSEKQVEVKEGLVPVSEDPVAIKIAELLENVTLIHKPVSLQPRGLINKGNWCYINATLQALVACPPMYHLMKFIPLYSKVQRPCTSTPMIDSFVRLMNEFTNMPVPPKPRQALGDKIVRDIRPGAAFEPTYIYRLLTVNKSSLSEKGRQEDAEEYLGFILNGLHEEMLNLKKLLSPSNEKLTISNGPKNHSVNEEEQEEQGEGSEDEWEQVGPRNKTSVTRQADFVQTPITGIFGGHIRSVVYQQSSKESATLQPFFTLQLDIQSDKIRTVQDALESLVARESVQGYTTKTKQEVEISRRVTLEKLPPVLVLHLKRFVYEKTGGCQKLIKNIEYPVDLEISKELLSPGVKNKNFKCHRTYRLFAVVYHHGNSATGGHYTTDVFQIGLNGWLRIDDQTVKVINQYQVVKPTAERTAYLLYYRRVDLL
UniProt O94874: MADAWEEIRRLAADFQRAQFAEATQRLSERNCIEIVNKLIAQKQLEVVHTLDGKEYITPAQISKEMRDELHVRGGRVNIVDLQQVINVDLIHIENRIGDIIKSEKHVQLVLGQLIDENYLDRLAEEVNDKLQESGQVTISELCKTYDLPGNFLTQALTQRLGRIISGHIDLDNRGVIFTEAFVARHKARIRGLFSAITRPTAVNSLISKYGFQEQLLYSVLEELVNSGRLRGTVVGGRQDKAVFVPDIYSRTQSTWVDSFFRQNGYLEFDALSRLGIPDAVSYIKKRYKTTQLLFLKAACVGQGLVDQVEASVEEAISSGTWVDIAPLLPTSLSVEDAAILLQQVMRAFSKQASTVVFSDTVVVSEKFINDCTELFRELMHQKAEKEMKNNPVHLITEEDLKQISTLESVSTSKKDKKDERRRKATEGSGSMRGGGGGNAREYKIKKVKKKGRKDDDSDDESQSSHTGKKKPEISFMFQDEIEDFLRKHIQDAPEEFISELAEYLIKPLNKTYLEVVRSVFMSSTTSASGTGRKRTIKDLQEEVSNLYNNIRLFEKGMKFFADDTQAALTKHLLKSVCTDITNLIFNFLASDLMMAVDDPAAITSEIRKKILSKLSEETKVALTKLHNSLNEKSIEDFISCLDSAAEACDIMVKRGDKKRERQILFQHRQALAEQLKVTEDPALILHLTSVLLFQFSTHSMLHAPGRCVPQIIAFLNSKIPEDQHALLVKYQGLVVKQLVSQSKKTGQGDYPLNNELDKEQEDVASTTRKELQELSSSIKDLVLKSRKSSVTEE
UniProt Q9UKW4: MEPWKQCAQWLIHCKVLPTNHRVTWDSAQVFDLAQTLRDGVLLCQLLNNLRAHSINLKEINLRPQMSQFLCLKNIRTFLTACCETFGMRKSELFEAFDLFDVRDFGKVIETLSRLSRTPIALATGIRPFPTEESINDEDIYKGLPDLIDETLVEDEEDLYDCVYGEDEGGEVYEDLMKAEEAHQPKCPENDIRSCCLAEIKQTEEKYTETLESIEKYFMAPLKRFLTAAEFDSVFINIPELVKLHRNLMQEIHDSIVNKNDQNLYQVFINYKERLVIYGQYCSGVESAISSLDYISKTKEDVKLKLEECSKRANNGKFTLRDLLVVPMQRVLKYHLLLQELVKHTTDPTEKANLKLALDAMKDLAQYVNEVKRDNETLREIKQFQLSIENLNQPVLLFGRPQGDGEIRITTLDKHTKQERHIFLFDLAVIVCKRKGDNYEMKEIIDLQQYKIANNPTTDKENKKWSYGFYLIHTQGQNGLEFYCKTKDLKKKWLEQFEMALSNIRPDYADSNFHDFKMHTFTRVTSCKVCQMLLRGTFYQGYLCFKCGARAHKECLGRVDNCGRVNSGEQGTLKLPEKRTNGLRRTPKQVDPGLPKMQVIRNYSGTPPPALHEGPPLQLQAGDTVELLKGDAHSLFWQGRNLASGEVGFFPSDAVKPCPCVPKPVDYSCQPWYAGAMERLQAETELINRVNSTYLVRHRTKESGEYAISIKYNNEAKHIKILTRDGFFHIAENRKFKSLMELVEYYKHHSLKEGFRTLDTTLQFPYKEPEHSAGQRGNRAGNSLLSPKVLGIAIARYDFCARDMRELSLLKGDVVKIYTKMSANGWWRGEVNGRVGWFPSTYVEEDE
UniProt O60701: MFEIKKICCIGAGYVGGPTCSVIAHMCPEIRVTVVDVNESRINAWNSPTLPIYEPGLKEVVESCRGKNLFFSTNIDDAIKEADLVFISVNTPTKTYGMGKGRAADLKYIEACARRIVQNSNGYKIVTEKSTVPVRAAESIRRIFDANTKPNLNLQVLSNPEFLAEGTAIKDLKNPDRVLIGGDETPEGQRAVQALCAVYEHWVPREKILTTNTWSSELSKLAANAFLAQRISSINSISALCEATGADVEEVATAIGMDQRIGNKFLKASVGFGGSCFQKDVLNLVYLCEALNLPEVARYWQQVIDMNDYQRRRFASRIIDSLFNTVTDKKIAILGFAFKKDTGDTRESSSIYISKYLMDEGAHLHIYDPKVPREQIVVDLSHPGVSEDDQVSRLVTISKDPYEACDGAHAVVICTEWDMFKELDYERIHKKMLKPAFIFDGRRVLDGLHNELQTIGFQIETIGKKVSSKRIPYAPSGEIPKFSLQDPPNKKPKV
UniProt Q92890: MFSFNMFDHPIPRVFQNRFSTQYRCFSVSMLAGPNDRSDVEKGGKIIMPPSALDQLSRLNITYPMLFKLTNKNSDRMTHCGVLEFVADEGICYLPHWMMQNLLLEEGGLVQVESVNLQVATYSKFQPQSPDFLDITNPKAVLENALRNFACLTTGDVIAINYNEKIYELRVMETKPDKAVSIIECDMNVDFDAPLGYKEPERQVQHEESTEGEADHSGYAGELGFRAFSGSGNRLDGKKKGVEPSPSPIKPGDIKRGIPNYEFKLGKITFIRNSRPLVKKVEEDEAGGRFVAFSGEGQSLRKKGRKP
UniProt Q8TAA9: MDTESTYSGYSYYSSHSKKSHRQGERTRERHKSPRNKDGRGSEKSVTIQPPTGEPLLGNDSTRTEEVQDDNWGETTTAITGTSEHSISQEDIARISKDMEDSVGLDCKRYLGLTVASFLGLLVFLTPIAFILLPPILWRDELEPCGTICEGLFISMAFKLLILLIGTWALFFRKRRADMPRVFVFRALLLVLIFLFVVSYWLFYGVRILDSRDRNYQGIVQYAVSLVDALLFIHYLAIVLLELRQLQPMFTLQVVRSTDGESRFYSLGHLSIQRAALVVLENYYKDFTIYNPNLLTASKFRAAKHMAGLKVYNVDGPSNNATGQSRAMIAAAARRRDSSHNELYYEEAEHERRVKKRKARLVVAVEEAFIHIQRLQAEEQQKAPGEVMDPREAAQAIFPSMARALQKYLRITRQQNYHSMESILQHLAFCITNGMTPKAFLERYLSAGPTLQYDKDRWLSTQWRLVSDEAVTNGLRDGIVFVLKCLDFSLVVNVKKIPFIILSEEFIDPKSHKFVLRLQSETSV
UniProt Q9NYU2: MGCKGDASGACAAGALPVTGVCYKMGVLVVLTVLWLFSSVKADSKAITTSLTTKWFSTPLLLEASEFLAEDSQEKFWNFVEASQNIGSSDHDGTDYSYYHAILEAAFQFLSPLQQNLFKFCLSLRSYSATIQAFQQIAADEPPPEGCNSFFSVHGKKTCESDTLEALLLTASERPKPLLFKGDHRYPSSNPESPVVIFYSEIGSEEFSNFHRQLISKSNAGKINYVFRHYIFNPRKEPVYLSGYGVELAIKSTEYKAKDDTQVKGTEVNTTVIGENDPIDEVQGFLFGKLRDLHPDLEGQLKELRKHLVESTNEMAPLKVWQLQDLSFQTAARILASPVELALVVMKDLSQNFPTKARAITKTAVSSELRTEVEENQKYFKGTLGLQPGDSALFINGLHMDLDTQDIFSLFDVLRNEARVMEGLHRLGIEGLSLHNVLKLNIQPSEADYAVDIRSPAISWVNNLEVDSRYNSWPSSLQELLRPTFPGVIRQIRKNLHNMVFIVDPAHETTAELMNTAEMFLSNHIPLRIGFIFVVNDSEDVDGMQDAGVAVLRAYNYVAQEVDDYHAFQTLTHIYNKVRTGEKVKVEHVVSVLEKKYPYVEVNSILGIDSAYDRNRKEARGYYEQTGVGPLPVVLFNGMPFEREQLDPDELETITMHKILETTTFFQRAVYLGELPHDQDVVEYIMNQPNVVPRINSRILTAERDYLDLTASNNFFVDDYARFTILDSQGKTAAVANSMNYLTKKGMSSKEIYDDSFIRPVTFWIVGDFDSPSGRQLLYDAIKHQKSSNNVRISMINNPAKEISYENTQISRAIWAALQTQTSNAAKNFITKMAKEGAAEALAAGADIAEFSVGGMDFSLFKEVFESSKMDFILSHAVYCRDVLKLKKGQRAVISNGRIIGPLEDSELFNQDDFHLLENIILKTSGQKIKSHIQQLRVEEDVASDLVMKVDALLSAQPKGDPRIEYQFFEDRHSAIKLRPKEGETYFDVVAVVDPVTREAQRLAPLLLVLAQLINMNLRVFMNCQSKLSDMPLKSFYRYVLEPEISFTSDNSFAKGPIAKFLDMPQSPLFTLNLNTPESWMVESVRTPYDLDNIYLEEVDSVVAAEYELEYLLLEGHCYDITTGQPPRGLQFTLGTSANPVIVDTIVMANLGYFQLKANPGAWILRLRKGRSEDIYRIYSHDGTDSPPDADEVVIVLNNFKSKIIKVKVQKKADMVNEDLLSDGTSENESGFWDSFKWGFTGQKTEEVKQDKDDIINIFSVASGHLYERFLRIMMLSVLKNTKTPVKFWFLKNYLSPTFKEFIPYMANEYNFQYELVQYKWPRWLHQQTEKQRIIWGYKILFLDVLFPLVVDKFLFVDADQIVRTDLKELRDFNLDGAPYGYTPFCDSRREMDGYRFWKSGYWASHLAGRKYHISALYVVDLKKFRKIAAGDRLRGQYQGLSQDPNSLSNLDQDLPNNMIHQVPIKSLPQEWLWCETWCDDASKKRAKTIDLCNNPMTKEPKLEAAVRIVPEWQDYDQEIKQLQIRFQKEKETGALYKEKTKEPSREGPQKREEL

These targets were tested with Cc1cc(Nc2cc(CN3CCOCC3)c3nc(C)c(Cc4ccc(Cl)cc4F)n3n2)n[nH]1 [gandotinib] (assay: log2 fold change, soluble protein after heating vs DMSO (PISA); higher = thermal stabilisation; K562 lysate, 10 uM; active = over 0.2 and 3.5 SD of the protein, either way, in both replicates (recomputed)).
Outline: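 A 30 min treatment with 10 μM compound was applied to crude K562 extract at 1 mg/mL protein in PBS pH 7.4 with 1 mM MgCl2. Heating for 3 min spanned 48°C-58°C, after which aliquots were pooled, adjusted to 0.5% NP-40 at 4°C and spun at 21,000xg for 90 min. TMTpro 16plex LC-MS/MS of the supernatant, with channel sums equalised, gave values recorded as log-two fold change in thermal stability against solvent controls, from duplicates.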

log2 fold change, inactive:
UPF2 (UniProt Q9HAU5) -0.052
VDAC2 isoform 2 (UniProt P45880) 0.023
USP10 isoform 2 (UniProt Q14694) -0.046
VCX3B (UniProt Q9H321) 0.072
UFL1 (UniProt O94874) -0.139
USP48 isoform 8 (UniProt Q86UV5) -0.044
UPF3B (UniProt Q9BZI7) 0.037
VAV3 isoform 4 (UniProt Q9UKW4) 0.135
UGDH (UniProt O60701) -0.067
USP8 (UniProt P40818) -0.077
UFD1 isoform 1 (UniProt Q92890) 0.061
VAPA (UniProt Q9P0L0) -0.197
VAC14 (UniProt Q08AM6) -0.069
USP25 (UniProt Q9UHP3) -0.056
VAMP7 (UniProt P51809) 0.002
UHRF1BP1L (UniProt A0JNW5) 0.032
VANGL1 (UniProt Q8TAA9) 0.004
VDAC1 (UniProt P21796) 0.049
VARS2, A0A0G2JL52 0.041
USP15 (UniProt Q9Y4E8) -0.049
UQCRQ (UniProt O14949) -0.068
VAMP8 (UniProt Q9BV40) -0.029
UGGT1 (UniProt Q9NYU2) 0.02

A stretch of the results above, for reference:
log2 fold change, inactive:
USP15 (UniProt Q9Y4E8) -0.049
UQCRQ (UniProt O14949) -0.068
